# Taken from: PubChem BioAssay AID1053208 (Peter MacCallum Cancer Centre, 2014)
# Assay: 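Find knock-downs that sensitise mouse osteosarcoma cells to doxorubicin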 (primary screen)
# Cell system: mouse osteosarcoma cells, early-passage culture from an engineered mouse model of fibroblastic bone tumour
# Knock-down reagent: siRNA pool against mouse genes, 40 nM
# Duration: about 120 h (48 h before drug, then 72 h with drug)
# Conditions: doxorubicin 100 nM for 72 h, roughly 30-40% inhibitory dose
# Read-out: 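Viability read as ATP luminescence after 72 h of 100 nM doxorubicin or none, duplicate wells averaged, scaled to non-targeting siRNA, then expressed as robust z-scores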
# Direction: viability z-score with doxorubicin and doxorubicin viability vs non-targeting: higher = more viable cells under doxorubicin; viability z-score without drug: higher = more viable cells with knock-down alone; z-score of drug to no-drug ratio: higher = less drug sensitisation by knock-down
# Hit rule: 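a pool counts as active when its viability z-score with doxorubicin is -2 or below and its z-score without drug lies between -2 and 2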
# Here is one part, drawn at random, of about 17,000 deposited reagents. Over the whole deposit, 788 (4.7%) are marked active. 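Calls rest on z-score classes alone; an extra cut-off of viability at most 70% of control was not applied to them.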 Reagents against one gene are numbered here. A reagent listed more than once was tested more than once; the source does not tell the runs apart.
gene,reagent no.,combined z-score class,viability z-score with doxorubicin,viability z-score without drug,z-score of drug to no-drug ratio,doxorubicin viability vs non-targeting,activity call
Nceh1 (neutral cholesterol ester hydrolase 1),1,no change with or without drug,-0.9,0.51,-1.12,0.86,inactive
1810043J12RIK,1,low cell count with doxorubicin only,-2.7,0.17,-2.81,0.7,active
Rnf151 (ring finger protein 151),1,no change with or without drug,1.12,-0.17,1.46,1.04,inactive
Miox (myo-inositol oxygenase),1,no change with or without drug,0.67,-0.17,0.9,1,inactive
Rsrp1 (arginine/serine rich protein 1),1,no change with or without drug,1.35,1.18,0.67,1.06,inactive
Fastk (Fas-activated serine/threonine kinase),1,no change with or without drug,-1.01,-0.84,-0.45,0.85,inactive
Rpap3 (RNA polymerase II associated protein 3),1,low cell count with doxorubicin only,-4.27,-0.17,-4.27,0.56,active
Grina,1,no change with or without drug,1.12,0.51,0.9,1.04,inactive
Or6c5 (olfactory receptor family 6 subfamily C member 5),1,no change with or without drug,1.57,1.52,0.67,1.08,inactive
Bysl (bystin-like),1,low cell count without drug only,-0.67,-2.7,1.46,0.88,inactive
Sema3b,1,no change with or without drug,0.11,0.84,-0.34,0.95,inactive
Dtnbp1 (dystrobrevin binding protein 1),1,no change with or without drug,0.22,0.84,-0.22,0.96,inactive
Ormdl2 (ORM1-like 2 (S. cerevisiae)),1,low cell count with doxorubicin only,-2.14,-0.84,-1.69,0.75,active
Ttc36 (tetratricopeptide repeat domain 36),1,no change with or without drug,0.79,1.01,0.22,1.01,inactive
Ticam1 (TIR domain containing adaptor molecule 1),1,no change with or without drug,0.22,0.17,0.22,0.96,inactive
Scyl3 (SCY1-like 3 (S. cerevisiae)),1,no change with or without drug,-0.22,-0.84,0.45,0.92,inactive
Scyl3 (SCY1-like 3 (S. cerevisiae)),1,low cell count with doxorubicin only,-2.7,-1.52,-1.91,0.7,active
Fktn (fukutin),1,no change with or without drug,-0.67,1.18,-1.35,0.88,inactive
Stx12 (syntaxin 12),1,no change with or without drug,0,-0.67,0.56,0.94,inactive
Gpc2 (glypican 2 cerebroglycan),1,no change with or without drug,0.34,-0.34,0.67,0.97,inactive
Pnpla2 (patatin-like phospholipase domain containing 2),1,no change with or without drug,0.34,0.84,-0.11,0.97,inactive
Wdr1 (WD repeat domain 1),1,no change with or without drug,-1.35,-0.84,-0.79,0.82,inactive
Or2t26 (olfactory receptor family 2 subfamily T member 26),1,no change with or without drug,-1.35,-1.01,-0.67,0.82,inactive
"Pycr2 (pyrroline-5-carboxylate reductase family, member 2)",1,no change with or without drug,-0.9,-1.18,0,0.86,inactive
Ly96 (lymphocyte antigen 96),1,no change with or without drug,0.67,-0.84,1.46,1,inactive
Cxcl12 (C-X-C motif chemokine ligand 12),1,no change with or without drug,1.01,-1.18,2.14,1.03,inactive
Gars1 (glycyl-tRNA synthetase 1),1,no change with or without drug,0,-1.18,1.01,0.94,inactive
Or5m10 (olfactory receptor family 5 subfamily M member 10),1,no change with or without drug,0.67,0.34,0.56,1,inactive
Sdhc,1,no change with or without drug,-0.56,0.17,-0.56,0.89,inactive
Haglr (Hoxd antisense growth associated long non-coding RNA),1,no change with or without drug,-0.67,-0.34,-0.34,0.88,inactive
Mmaa (methylmalonic aciduria (cobalamin deficiency) type A),1,no change with or without drug,-0.67,1.18,-1.35,0.88,inactive
Nkiras1 (NFKB inhibitor interacting Ras-like protein 1),1,no change with or without drug,0,-0.84,0.67,0.94,inactive
Bccip (BRCA2 and CDKN1A interacting protein),1,no change with or without drug,-1.57,-1.18,-0.79,0.8,inactive
Plac1 (placental specific protein 1),1,no change with or without drug,-1.57,-0.51,-1.24,0.8,inactive
Hsd3b2,1,no change with or without drug,0,0,0.11,0.94,inactive
"Postn (periostin, osteoblast specific factor)",1,high cell count without drug only,1.46,2.19,0.11,1.07,inactive
Or51g1 (olfactory receptor family 51 subfamily G member 1),1,no change with or without drug,-0.45,-1.52,0.79,0.9,inactive
Ccl3 (C-C motif chemokine ligand 3),1,no change with or without drug,0.22,0.17,0.22,0.96,inactive
"Pcdhga7 (protocadherin gamma subfamily A, 7)",1,low cell count with doxorubicin only,-2.7,0.34,-2.92,0.7,active
Adam21 (a disintegrin and metallopeptidase domain 21),1,no change with or without drug,-0.45,-0.17,-0.22,0.9,inactive
Msx2 (msh homeobox 2),1,no change with or without drug,0,-0.17,0.22,0.94,inactive
Slc22a15,1,no change with or without drug,-0.11,1.85,-1.12,0.93,inactive
Gpr151 (G protein-coupled receptor 151),1,no change with or without drug,-0.45,-0.84,0.22,0.9,inactive
Nucb2 (nucleobindin 2),1,no change with or without drug,-0.22,-0.84,0.45,0.92,inactive
"Chrnb3 (cholinergic receptor, nicotinic, beta polypeptide 3)",1,no change with or without drug,-1.46,-0.17,-1.35,0.81,inactive
Sfrp5 (secreted frizzled-related sequence protein 5),1,no change with or without drug,-0.11,0,0,0.93,inactive
Lin54 (lin-54 DREAM MuvB core complex component),1,low cell count without drug only,-0.9,-2.02,0.67,0.86,inactive
Bex3 (brain expressed X-linked 3),1,no change with or without drug,1.57,-0.51,2.14,1.08,inactive
"Abcf3 (ATP-binding cassette, sub-family F member 3)",1,no change with or without drug,-0.45,0.51,-0.67,0.9,inactive
Fah (fumarylacetoacetate hydrolase),1,no change with or without drug,1.35,-0.51,1.91,1.06,inactive
Prss33 (serine protease 33),1,no change with or without drug,0.22,-0.34,0.56,0.96,inactive
Dnm1 (dynamin 1),1,no change with or without drug,-1.24,-0.17,-1.12,0.83,inactive
"Fabp1 (fatty acid binding protein 1, liver)",1,no change with or without drug,0.67,0.17,0.67,1,inactive
Zfp809 (zinc finger protein 809),1,no change with or without drug,-0.11,-0.17,0.11,0.93,inactive
Gramd4 (GRAM domain containing 4),1,no change with or without drug,0.56,0.67,0.22,0.99,inactive
Dhrs2 (dehydrogenase/reductase member 2),1,no change with or without drug,-1.12,0.84,-1.57,0.84,inactive
Hsd17b6 (hydroxysteroid (17-beta) dehydrogenase 6),1,no change with or without drug,-0.22,0.51,-0.45,0.92,inactive
"Hao1 (hydroxyacid oxidase 1, liver)",1,no change with or without drug,0.22,-0.34,0.56,0.96,inactive
Tmem179 (transmembrane protein 179),1,no change with or without drug,-0.11,-0.51,0.34,0.93,inactive
"Mob4 (MOB family member 4, phocein)",1,low cell count with and without drug,-2.36,-2.19,-1.01,0.73,inactive
Tceanc2,1,no change with or without drug,-1.46,0.51,-1.69,0.81,inactive
Tceanc2,2,no change with or without drug,-0.11,-1.01,0.67,0.93,inactive
Ica1 (islet cell autoantigen 1),1,low cell count with doxorubicin only,-2.25,-1.85,-1.12,0.74,active
